The subject of assay [1] is C. parvum. In words: 48 h Cryptosporidium growth inhibition assay. It counts as cell-based. As to conditions: read-out: Regular 3 to 48 h assay in vitro EC90; C. parvum in HCT-8 cells; compound added 3 h post-infection, read at 48 h. The text has this: As a first step in developing specific Cryptosporidium mode of action assays, we conducted a series of light microscopy time-lapse and transmission electron microscopy (TEM) time course experiments in order to precisely define C. parvum development within the HCT-8 cell culture system. […] This synchronicity was exploited by modifying a previously developed high-content microscopy assay. These assay modifications enabled the evaluation of several key events within the life cycle: host cell invasion, intracellular replication, host cell egress and establishment of new parasitophorous vacuoles, and sexual differentiation. […]
A modification of a previously reported immunofluorescence assay was used to determine the EC50 and EC90 of compounds[13]. […] A Nikon Eclipse Ti2000 epifluorescence microscope with an automated stage was programmed using NIS-Elements Advanced Research software (Nikon, USA) to focus on the center of each well and take a 3 × 3 or 6 × 6 composite image using an EXi blue fluorescence microscopy camera (QImaging, Canada) with a 20 × objective (NA = 0.45). Nuclei and parasite images were separately exported as.tif files and analyzed using macros developed on the ImageJ platform (National Institutes of Health)[13].

Assay [2] relates to C. parvum. Format: cell-based, Cryptosporidium parvum. The conditions noted are these: compound at EC90. The method, then: The first step in infection is host cell invasion, which involves a complex process encompassing oocyst excystation, parasite motility, adhesion, and parasitophorous vacuole formation (Fig. 2a). Our strategy to assay for compounds affecting invasion was simply to expose C. parvum to compounds immediately after triggering excystation and throughout the invasion process, and then enumerate the parasite vacuoles after 3 h, prior to allowing the parasites to replicate (summarized in Fig. 2b).
Fig. 2 Invasion Assay. a Overview of life cycle stage investigated during the invasion assay. Representative TEM images of a C. parvum oocyst and HCT-8 cell shortly after infection (Scale bar = 500 nm). b Schematic of experimental design. […] Each point represents the mean and SD of at least two biological replicates with four technical replicates per experiment.
C. parvum invasion inhibition was measured by modifying the 48 h growth inhibition assay described above. […] In parallel, Iowa strain oocysts were excysted. […] Assay plates were incubated at 37 °C and 5% CO2 for 3 h.

Assay [3] relates to C. parvum. Briefly: DNA replication assay (EdU incorporation). It counts as cell-based, Cryptosporidium parvum. The conditions noted are these: compound at EC90. An excerpt: Following cell invasion, Cryptosporidium trophozoites grow and multiply to give rise to multinucleated type I meronts (Fig. 3a). The thymidine analog 5-ethynyl-2′-deoxyuridine (EdU) is efficiently incorporated into newly synthesized DNA, and can be detected using click chemistry. We used EdU to measure parasite intracellular DNA replication, as a surrogate for the more complex phenotype of intracellular growth and division. The approach for differentially labeling newly synthesized parasite DNA compared to host cell DNA was to take advantage of the fact that C. parvum replicates more quickly than the nearly confluent host cells. Thus, by adding EdU shortly before egress, it was possible to preferentially label replicating parasites (Fig. 3b, c). DNA staining with Hoechst labeled all of the host and parasite DNA, making it challenging to visualize and quantify parasite DNA. A simple DNA stain would also not distinguish pre-existing DNA from newly synthesized DNA (Fig. 3c). In contrast, EdU labeling only occurred with incorporation into newly synthesized DNA. Incorporated EdU was then easily stained for immunofluorescence and labeled parasites were quantified using high-content microscopy and an NIH ImageJ macro (Fig. 3c, DMSO condition). The […] hydroxyurea (10 mM), a known inhibitor of DNA replication, was used as a positive control for assay validation. […]
Confluent HCT-8 cell monolayers in glass bottom plates were infected with C. parvum, and compounds were added at EC90 following invasion. […] Arrows indicate selected parasites with EdU-labeled DNA. d Quantification of EdU incorporation. […]
After incubation of cells with EdU for 2 h, cells were washed 3 times with PBS-D-gal and then fixed with PBS containing 4% PFA. […] Cells were then imaged by focusing on parasites (note that the host cell nuclei are in a different focal plane) using a 40 × dry objective (0.7 NA) and EdU, and lectin numbers quantified using ImageJ software and the custom macro in Supplementary Method 1.

In assay [4] the test system is C. parvum DMC1 expression. In words: Sexual differentiation assay (DMC1 expression). Format: cell-based, Cryptosporidium parvum. As to conditions: compound at asexual EC90, 48-72 h. An excerpt: We utilized DMC1 as a marker of C. parvum sexual development, and used the anti-DMC1 monoclonal antibody to develop a moderate-throughput high-content microscopy assay for characterizing anticryptosporidial compounds (Fig. 6a). […] Therefore, in order to enable numerical comparison of the ability of compounds to block sexual development with moderate throughput, we adopted a strategy of reporting the percent inhibition of DMC1 expression by the previously determined EC90 of each compound in the standard asexual development assay (Fig. 6c and Supplementary Table 2).
Fig. 6 Assay to measure asexual-to-sexual-stage conversion. a Schematic of the experimental approach. […] For b and c the mean and SD combined from at least two biological replicates with four technical replicates per experiment are shown. […] At given time points post-infection, infected cells were washed 3 times with PBS containing 111 mM of D-galactose, fixed for 15 min at room temperature with 4% paraformaldehyde in PBS, and permeabilized with 0.25% triton X-100 in PBS for 10 min at 37 °C. […] Lectin positive cells in focus were first counted, followed by DMC1.
For compound dose-response studies, the same assay was performed in 384-well plates and imaged using a 20 × dry objective (NA = 0.45). […] Images were analyzed using ImageJ software and the custom macro provided in Supplementary Method 2.

Structures are written as SMILES.

For `CC(C)n1nc(-c2cc3cc(O)ccc3[nH]2)c2c(N)ncnc21` [Torkinib], the EC90 in the assay on C. parvum [1] amounted to 360 nM. The “Invasion Assay: Mean % Inhibition (parasites), Average” value in the assay on C. parvum [2] (average of replicates) is given as -21.41%. Also, the “Invasion Assay: Mean % Inhibition (parasites), Replicate 1a” value in the assay with C. parvum [2] (single biological replicate 1) was -31%. Besides, in the assay on C. parvum [2] (single biological replicate 2), the “Invasion Assay: Mean % Inhibition (parasites), Replicate 2a” value was -11%. For the same compound, in the assay with C. parvum [3] (average of replicates), the “DNA Synthesis Assay: Mean % Inhibition of EdU-labeling (normalized to parasite numbers), Average” value is listed as -16.16%. The “DNA Synthesis Assay: Mean % Inhibition of EdU-labeling (normalized to parasite numbers), Replicate 2” value in the assay on C. parvum [3] (single replicate 2) is reported as -50.42%. Also, the “DNA Synthesis Assay: Mean % Inhibition of EdU-labeling (normalized to parasite numbers), Replicate 3” value with C. parvum [3] (single replicate 3) is given as -8.92%. The “Asexual to sexual differentiation: Mean % DMC1 inhibition (normalized to host nuclei), Replicate 1a” value in assay [4] (single replicate 1) was 5.76%. The “Asexual to sexual differentiation: Mean % DMC1 inhibition (normalized to host nuclei), Replicate 2a” value in assay [4] (single replicate 2) is 16.61%.

These data come from article PMC6478823, “A suite of phenotypic assays to ensure pipeline diversity when prioritizing drug-like Cryptosporidium growth inhibitors” (Nature Communications, 2019).
